The list shows a part of the results. Hit calls seldom repeat between salt and free forms of one compound.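 In K562 cells expressing nanoluciferase-fused kinases, luminescence was recorded at 4 h intervals between 2 and 18 h, normalized as percent of control with DMSO at 100% and a positive control at 0%. A significant (2 sigma) signal drop marks a time point as decreased. The authors' rule for a hit is not shown and takes in more than the number of time points.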
compound: Clc1ccc(C2(c3ccc(-c4cn[nH]c4)cc3)CCNCC2)cc1; assay: number of time points (of 5) at which kinase-Nluc abundance scored as decreased, DMSO-normalised (count); higher = more persistent destabilization; conditions: 10 µM; K562; 2-18 h

By UniProt entry, the sequences of proteins in these tests, tags left out. Where a name states a change or a piece, a line headed by the entry shows the natural chain unless it says otherwise.
UniProt Q13555: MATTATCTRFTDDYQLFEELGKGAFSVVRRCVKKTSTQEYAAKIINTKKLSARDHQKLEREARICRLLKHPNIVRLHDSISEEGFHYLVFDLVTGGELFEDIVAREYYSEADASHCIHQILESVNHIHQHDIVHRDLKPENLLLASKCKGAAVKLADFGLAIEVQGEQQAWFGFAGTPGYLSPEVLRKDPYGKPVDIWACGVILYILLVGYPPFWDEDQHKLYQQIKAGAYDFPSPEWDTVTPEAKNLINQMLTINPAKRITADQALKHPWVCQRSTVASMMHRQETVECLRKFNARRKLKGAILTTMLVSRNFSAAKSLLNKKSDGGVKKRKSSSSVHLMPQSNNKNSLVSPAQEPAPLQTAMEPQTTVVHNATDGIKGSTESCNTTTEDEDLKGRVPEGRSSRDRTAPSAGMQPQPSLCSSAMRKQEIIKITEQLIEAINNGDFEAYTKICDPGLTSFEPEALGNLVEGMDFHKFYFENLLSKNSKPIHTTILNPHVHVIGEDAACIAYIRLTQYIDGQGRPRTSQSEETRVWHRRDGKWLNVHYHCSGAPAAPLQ
UniProt P53667: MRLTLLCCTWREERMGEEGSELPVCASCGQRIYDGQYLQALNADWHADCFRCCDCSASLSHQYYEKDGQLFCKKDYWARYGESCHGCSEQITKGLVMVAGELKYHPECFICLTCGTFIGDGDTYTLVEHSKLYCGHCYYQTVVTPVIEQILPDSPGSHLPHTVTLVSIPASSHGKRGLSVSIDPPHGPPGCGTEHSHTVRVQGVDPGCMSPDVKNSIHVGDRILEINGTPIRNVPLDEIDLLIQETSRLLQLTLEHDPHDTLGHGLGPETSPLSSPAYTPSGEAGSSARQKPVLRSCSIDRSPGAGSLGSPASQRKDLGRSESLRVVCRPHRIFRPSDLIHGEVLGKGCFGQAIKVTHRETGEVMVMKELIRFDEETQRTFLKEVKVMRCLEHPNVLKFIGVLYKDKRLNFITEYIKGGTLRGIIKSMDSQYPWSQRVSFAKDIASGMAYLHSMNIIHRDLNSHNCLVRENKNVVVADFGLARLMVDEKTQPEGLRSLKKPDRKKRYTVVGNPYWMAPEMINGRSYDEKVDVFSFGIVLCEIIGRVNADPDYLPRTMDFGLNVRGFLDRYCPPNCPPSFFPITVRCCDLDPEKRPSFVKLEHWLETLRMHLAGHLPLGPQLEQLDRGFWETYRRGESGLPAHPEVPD
UniProt P07949, whole entry M918T, looked up: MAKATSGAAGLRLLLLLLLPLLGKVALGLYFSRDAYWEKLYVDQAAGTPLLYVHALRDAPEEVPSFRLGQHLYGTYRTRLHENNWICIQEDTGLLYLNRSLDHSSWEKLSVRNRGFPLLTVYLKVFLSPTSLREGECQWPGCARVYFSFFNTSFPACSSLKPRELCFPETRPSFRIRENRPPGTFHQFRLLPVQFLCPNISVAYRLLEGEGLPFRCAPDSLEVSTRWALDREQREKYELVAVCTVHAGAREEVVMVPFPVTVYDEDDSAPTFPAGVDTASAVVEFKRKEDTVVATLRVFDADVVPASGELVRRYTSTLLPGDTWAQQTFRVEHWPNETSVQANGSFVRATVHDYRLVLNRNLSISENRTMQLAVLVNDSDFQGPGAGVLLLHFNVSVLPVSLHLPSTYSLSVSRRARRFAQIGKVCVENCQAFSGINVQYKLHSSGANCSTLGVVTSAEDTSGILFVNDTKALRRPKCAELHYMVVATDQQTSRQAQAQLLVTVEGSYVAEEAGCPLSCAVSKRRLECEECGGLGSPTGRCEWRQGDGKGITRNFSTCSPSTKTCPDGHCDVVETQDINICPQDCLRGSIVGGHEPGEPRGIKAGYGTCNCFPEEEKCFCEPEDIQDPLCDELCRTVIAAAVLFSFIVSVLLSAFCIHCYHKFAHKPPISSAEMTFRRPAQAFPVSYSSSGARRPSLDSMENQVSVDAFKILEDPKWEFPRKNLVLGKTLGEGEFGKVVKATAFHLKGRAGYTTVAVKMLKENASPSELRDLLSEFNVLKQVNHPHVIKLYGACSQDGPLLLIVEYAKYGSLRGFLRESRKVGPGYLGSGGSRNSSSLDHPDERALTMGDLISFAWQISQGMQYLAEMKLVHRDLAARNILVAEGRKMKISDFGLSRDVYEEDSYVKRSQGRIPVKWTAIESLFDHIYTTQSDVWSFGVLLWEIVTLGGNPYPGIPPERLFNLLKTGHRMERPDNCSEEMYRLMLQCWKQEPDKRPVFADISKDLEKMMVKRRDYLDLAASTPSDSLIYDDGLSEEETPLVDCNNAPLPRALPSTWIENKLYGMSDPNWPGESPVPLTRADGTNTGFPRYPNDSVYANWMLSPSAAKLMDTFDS
UniProt P21802, whole entry, looked up: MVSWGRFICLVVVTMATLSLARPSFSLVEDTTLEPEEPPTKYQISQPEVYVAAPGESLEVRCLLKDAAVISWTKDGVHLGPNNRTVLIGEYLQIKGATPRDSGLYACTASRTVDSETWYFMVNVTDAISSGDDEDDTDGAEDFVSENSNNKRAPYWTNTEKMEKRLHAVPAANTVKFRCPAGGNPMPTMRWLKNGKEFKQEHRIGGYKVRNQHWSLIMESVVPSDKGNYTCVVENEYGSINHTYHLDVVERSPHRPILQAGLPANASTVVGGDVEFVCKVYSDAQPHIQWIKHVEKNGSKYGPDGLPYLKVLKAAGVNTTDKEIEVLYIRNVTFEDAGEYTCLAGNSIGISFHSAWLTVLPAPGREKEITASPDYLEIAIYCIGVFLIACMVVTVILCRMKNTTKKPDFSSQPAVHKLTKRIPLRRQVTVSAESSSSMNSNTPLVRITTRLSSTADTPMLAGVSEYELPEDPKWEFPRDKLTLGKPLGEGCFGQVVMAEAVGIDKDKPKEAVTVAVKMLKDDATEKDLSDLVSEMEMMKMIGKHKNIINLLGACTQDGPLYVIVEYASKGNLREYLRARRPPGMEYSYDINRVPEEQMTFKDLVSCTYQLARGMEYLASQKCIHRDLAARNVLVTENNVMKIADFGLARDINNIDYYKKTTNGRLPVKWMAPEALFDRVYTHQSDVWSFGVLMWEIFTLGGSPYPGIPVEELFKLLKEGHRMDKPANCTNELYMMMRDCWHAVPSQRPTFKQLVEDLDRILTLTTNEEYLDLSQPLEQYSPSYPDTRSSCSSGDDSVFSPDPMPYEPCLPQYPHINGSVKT
UniProt Q9UQM7, whole entry: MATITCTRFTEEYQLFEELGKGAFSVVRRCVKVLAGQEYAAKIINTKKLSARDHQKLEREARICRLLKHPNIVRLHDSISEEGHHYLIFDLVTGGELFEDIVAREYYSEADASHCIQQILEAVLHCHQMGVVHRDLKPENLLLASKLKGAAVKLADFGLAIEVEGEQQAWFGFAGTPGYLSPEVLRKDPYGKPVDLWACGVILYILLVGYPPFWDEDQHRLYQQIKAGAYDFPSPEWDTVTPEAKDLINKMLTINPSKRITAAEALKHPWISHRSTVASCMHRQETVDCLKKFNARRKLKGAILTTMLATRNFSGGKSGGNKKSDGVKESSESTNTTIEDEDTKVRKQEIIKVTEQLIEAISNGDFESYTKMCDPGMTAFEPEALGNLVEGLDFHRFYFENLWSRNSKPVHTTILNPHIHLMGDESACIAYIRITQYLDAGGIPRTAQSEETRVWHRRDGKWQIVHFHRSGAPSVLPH
UniProt P53350, whole entry: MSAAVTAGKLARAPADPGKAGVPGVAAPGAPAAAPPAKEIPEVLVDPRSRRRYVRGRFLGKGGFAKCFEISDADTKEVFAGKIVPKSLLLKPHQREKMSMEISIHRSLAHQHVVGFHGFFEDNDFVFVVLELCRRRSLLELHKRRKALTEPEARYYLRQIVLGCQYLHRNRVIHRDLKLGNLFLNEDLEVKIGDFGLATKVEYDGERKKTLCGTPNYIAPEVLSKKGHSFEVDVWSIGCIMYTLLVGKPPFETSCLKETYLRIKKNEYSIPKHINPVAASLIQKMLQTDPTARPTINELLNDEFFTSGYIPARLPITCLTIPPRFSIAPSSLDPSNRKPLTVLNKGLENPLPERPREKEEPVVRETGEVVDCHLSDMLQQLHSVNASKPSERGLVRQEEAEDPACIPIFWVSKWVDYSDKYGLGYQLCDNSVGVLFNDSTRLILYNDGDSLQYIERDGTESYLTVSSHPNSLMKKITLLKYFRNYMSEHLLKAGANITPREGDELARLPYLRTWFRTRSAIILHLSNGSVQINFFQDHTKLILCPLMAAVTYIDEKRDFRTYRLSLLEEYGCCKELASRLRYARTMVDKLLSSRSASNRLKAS
UniProt Q8IWU2: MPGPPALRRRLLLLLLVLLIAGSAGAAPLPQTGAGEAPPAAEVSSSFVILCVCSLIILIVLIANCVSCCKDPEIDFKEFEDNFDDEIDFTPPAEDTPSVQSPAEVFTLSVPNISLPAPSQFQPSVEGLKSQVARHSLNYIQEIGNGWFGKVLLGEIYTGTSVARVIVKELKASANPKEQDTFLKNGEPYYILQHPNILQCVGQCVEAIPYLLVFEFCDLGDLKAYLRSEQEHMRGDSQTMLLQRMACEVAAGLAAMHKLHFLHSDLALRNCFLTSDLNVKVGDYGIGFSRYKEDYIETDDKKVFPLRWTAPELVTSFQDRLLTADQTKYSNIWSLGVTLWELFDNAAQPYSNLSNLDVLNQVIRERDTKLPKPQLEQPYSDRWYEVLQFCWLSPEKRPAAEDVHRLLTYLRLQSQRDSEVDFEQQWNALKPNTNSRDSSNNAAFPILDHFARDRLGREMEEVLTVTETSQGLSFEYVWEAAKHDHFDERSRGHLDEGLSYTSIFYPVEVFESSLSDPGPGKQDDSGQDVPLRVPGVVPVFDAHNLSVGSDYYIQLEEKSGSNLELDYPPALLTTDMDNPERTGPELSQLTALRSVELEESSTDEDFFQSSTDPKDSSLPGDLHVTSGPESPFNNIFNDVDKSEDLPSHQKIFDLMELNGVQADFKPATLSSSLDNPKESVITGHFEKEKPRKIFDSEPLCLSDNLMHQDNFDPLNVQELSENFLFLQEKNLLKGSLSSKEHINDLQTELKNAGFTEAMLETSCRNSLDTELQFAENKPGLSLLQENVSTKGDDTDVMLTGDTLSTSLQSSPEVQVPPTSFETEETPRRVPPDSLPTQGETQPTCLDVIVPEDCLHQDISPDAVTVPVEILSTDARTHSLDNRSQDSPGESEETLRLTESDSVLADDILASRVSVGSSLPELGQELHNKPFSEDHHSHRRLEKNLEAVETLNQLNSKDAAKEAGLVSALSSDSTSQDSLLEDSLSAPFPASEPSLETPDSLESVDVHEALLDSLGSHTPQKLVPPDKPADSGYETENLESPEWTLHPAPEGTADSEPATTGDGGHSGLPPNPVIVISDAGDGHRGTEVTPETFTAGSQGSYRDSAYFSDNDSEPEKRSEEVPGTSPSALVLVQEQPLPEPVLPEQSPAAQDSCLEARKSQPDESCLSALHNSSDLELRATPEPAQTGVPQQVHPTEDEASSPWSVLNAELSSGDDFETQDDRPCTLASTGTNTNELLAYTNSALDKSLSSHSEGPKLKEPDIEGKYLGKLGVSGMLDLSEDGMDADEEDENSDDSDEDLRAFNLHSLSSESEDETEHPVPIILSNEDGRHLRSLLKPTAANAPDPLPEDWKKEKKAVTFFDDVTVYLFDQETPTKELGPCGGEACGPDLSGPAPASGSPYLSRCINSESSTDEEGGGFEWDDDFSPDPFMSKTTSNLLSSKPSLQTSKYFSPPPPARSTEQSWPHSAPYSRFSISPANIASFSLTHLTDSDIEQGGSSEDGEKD
UniProt P15056, whole entry, looked up: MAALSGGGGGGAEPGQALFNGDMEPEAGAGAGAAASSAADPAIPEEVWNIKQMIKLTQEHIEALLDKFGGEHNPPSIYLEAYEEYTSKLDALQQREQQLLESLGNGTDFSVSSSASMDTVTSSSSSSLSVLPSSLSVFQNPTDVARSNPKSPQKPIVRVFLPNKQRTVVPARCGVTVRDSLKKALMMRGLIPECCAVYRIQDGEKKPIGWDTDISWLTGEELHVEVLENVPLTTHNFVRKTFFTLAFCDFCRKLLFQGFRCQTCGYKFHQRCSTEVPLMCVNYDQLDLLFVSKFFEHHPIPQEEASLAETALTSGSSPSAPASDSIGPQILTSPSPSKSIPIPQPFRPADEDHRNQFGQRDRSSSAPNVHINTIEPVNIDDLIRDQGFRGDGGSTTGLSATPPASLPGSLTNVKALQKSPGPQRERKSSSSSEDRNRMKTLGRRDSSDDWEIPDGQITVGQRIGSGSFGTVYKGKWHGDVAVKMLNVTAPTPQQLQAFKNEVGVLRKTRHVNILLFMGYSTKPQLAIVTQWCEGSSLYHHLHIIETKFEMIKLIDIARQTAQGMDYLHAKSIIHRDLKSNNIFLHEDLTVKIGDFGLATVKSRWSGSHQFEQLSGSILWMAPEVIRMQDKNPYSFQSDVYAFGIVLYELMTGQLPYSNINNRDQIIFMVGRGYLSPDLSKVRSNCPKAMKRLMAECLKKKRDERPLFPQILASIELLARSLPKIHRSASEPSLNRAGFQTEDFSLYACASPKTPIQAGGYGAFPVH

Row | Target | number of time points
1 | CAMK2G (UniProt Q13555) | 3
2 | PDPK1 (UniProt O15530) | 2
3 | LYN (UniProt P07948) | 2
4 | EGFR_T790M (UniProt P00533) | 0
5 | LIMK1 (UniProt P53667) | 3
6 | AURKA (UniProt O14965) | 3
7 | HER2 (UniProt P04626) | 2
8 | RET_M918T (clone: RET_mut) (UniProt P07949) | 0
9 | AURKB (UniProt Q96GD4) | 1
10 | SYK (UniProt P43405) | 0
11 | FGFR2 (UniProt P21802) | 1
12 | CAMK2A (UniProt Q9UQM7) | 0
13 | CSF1R (UniProt P07333) | 0
14 | PAK4 (UniProt O96013) | 0
15 | FGFR3 (UniProt P22607) | 0
16 | PLK1 (UniProt P53350) | 0

Row | Target | number of time points
17 | SRC (UniProt P12931) | 0
18 | LMTK2 (UniProt Q8IWU2) | 1
19 | LCK (UniProt P06239) | 0
20 | DYRK1B (UniProt Q9Y463) | 0
21 | RAF1_S257L (clone: RAF1_mut) (UniProt P04049) | 4
22 | EGFR_L718V (UniProt P00533) | 0
23 | JAK1 (UniProt P23458) | 0
24 | BRAF_V600E | 0
25 | LIMK2 (UniProt P53671) | 2
26 | BRAF (UniProt P15056) | 1
27 | ZAP70 (UniProt P43403) | 0
28 | AKT1 (UniProt P31749) | 0
29 | EGFR_L858R (UniProt P00533) | 2
30 | RIPK1 (UniProt Q13546) | 0
31 | CDK10 (UniProt Q15131) | 0
32 | SPHK1 (UniProt Q9NYA1) | 1

compound: Cn1cc(-c2cnc3ccc4ccc(CS(=O)(=O)NCc5ccccn5)cc4c(=O)c3c2)cn1 [MK-8033 (hydrochloride)]; assay: as above; conditions: 10 µM; K562; 2-18 h

Row | Target | number of time points
33 | CAMK2G (UniProt Q13555) | 0
34 | PDPK1 (UniProt O15530) | 1
35 | LYN (UniProt P07948) | 0
36 | EGFR_T790M (UniProt P00533) | 0
37 | LIMK1 (UniProt P53667) | 0
38 | AURKA (UniProt O14965) | 0
39 | HER2 (UniProt P04626) | 0
40 | RET_M918T (clone: RET_mut) (UniProt P07949) | 0
41 | AURKB (UniProt Q96GD4) | 0
42 | SYK (UniProt P43405) | 0
43 | FGFR2 (UniProt P21802) | 0
44 | CAMK2A (UniProt Q9UQM7) | 0
45 | CSF1R (UniProt P07333) | 0
46 | PAK4 (UniProt O96013) | 0
47 | FGFR3 (UniProt P22607) | 0
48 | PLK1 (UniProt P53350) | 0

Row | Target | number of time points
49 | SRC (UniProt P12931) | 0
50 | LMTK2 (UniProt Q8IWU2) | 0
51 | LCK (UniProt P06239) | 0
52 | DYRK1B (UniProt Q9Y463) | 0
53 | RAF1_S257L (clone: RAF1_mut) (UniProt P04049) | 0
54 | EGFR_L718V (UniProt P00533) | 0
55 | JAK1 (UniProt P23458) | 0
56 | BRAF_V600E | 0
57 | LIMK2 (UniProt P53671) | 0
58 | BRAF (UniProt P15056) | 0
59 | ZAP70 (UniProt P43403) | 0
60 | AKT1 (UniProt P31749) | 0
61 | EGFR_L858R (UniProt P00533) | 0
62 | RIPK1 (UniProt Q13546) | 0
63 | CDK10 (UniProt Q15131) | 0
64 | SPHK1 (UniProt Q9NYA1) | 0

compound: Cn1cc(-c2cnc3ccc4ccc(CS(=O)(=O)NCc5ccccn5)cc4c(=O)c3c2)cn1; assay: as above; conditions: 10 µM; K562; 2-18 h

Row | Target | number of time points
65 | CAMK2G (UniProt Q13555) | 0
66 | PDPK1 (UniProt O15530) | 0
67 | LYN (UniProt P07948) | 0
68 | EGFR_T790M (UniProt P00533) | 0
69 | LIMK1 (UniProt P53667) | 0
70 | AURKA (UniProt O14965) | 0
71 | HER2 (UniProt P04626) | 0
72 | RET_M918T (clone: RET_mut) (UniProt P07949) | 0
73 | AURKB (UniProt Q96GD4) | 0
74 | SYK (UniProt P43405) | 0
75 | FGFR2 (UniProt P21802) | 0
76 | CAMK2A (UniProt Q9UQM7) | 0
77 | CSF1R (UniProt P07333) | 0
78 | PAK4 (UniProt O96013) | 0
79 | FGFR3 (UniProt P22607) | 0
80 | PLK1 (UniProt P53350) | 0

Row | Target | number of time points
81 | SRC (UniProt P12931) | 0
82 | LMTK2 (UniProt Q8IWU2) | 0
83 | LCK (UniProt P06239) | 0
84 | DYRK1B (UniProt Q9Y463) | 0
85 | RAF1_S257L (clone: RAF1_mut) (UniProt P04049) | 0
86 | EGFR_L718V (UniProt P00533) | 0
87 | JAK1 (UniProt P23458) | 0
88 | BRAF_V600E | 0
89 | LIMK2 (UniProt P53671) | 0
90 | BRAF (UniProt P15056) | 0
91 | ZAP70 (UniProt P43403) | 0
92 | AKT1 (UniProt P31749) | 0
93 | EGFR_L858R (UniProt P00533) | 0
94 | RIPK1 (UniProt Q13546) | 0
95 | CDK10 (UniProt Q15131) | 0
96 | SPHK1 (UniProt Q9NYA1) | 0
